Substitutions are numbered along the chain they refer to. Numbers in names are those of the source. No constants are given. Whether binding was seen depends on the method and setting. Some results given as binding are weak or reduced against the parent protein; the word gives no strength. One block for each binder: values may come before it.
Legend:
[1] = biological target: PksH-D68A (Bacillus subtilis 168) (UniProt P40805); assay: SEC; PksH point mutants compared with the wild type; data not shown; both purified
[2] = biological target: PksH-E137A (Bacillus subtilis 168) (UniProt P40805); assay: as above

binding [1]: binds
B1: PksH-D68A (enzyme, UniProt P40805 1-259)
chain: MDLVTYQTIKVRFQASVCYITFHRPEANNTINDTLIEECLQVLNQCETSTVTVVVLEGLPEVFCFGAAFQEIYQEMKRGRKQASSQEPLYDLWMKLQTGPYVTISHVRGKVNAGGLGFVSATDIAIADQTASFSLSELLFGLYPACVLPFLIRRIGRQKAHYMTLMTKPISVQEASEWGLIDAFDAESDVLLRKHLLRLRRLNKKGIAHYKQFMSSLDHQVSRAKATALTANQDMFSDPQNQMGIIRYVETGQFPWEDQ

binding [2]: binds
B2: PksH-E137A (enzyme, UniProt P40805 1-259)
chain: B1 chain with A68D, E137A

Source: publication PMC7501309, “Structure and mechanism of a dehydratase/decarboxylase enzyme couple involved in polyketide β-methyl branch incorporation” (Scientific Reports, 2020)
